# Values of other authors in patent publication US6989369B2, “Kunitz domain peptides” (Dyax Corp., priority 2003, dated 2006).
# Part of at least one peptide drawing is inferred or uncertain, most often the ends. Positions of bridges follow the written chain, without caps; N, C: chain ends. No end group written: not given here.
# Target: T1, human neutrophil elastase (Homo sapiens, UniProt P08246)
# T1 sequence (P08246 30-267): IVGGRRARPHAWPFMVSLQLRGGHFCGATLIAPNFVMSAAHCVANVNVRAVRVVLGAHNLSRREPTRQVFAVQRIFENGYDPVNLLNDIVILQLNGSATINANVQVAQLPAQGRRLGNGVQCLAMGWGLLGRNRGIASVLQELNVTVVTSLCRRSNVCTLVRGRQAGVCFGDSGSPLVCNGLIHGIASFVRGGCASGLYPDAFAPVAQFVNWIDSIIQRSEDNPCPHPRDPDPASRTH
# Details: Table 4; read-out: Inhibition of human neutrophil elastase, Ki; cited from earlier work
sequence,measurement,value
"EACNLPIVRGPCIAFFPRWAFDAVKGKCVLFPYGGCQGNGNKFYSEKECREYCGVP (disulfide 3-53, 12-36, 28-49) [DX-890]",Ki,~5 pM
